Assay results from PubChem BioAssay AID662 (National Center for Advancing Translational Sciences (NCATS), 2007).
Some of the results follow. Shown are side measurements of this screen, not its main read-out; they come without a call. Compounds called inactive in the main read-out are mostly missing here. Potencies come from curve fits of mixed quality, noted in brackets.

Assay: Cell signaling CRE-BLA (Fsk stim)
Conditions: CHO CRE-bla reporter (cAMP response element driving beta-lactamase), forskolin EC10, beta-lactamase ratio; measured here: 460 nm blue channel
Method in brief: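 Beta-lactamase reporter under a cAMP responsive element in CHO cells; compounds tested in titration series against EC10 NKH 477, 3 h at 37 °C. Read-out: CCF4 FRET ratio 460nm/530nm (excitation 405nm) giving %Activity, fitted to AC50.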

Row | Structure (SMILES) | AC50
1 | CCN(CC)c1ccc2cc(-c3nc4ccccc4[nH]3)c(=O)oc2c1 | 3.16 µM [rising, partial curve]
2 | COCCOC(=O)C1=C(C)NC2=C(C(=O)CC(c3cccs3)C2)C1c1ccsc1 (configuration not stated) | 12.6 µM [rising, partial curve]
3 | O=C(O)c1ccc2c3c1cccc3c(=O)n1c3ccccc3nc21 | 5.01 µM [rising, partial curve]
4 | CC(C)(C)n1ncc2c(=O)n(CC(=O)NC3CCCCC3)cnc21 | 0.316 µM [falling, partial curve]
5 | Cn1c(C(=O)Nc2ccc3c(c2)OCCO3)cc2c(=O)n(C)c3ccccc3c21 | 0.398 µM [rising, full curve]
6 | CC(=O)Cc1nsc(NC(=O)c2ccc(-c3ccc(Cl)c(C(F)(F)F)c3)o2)n1 | 25.1 µM [falling, single point]
7 | COc1ccc(-c2nnc(SCC(=O)N3CCCc4ccccc43)o2)cc1OC | 1.26 µM [rising, partial curve]
8 | Cc1c(-c2nc(N)nc(Nc3ccccc3F)n2)oc2ccccc12 | 2 µM [rising, full curve]
9 | O=C(c1cccc(F)c1)N1CCC2(CCCN(C(c3ccccc3)c3ccccc3)C2)CC1 | 12.6 µM [rising, single point]
10 | COc1ccc(-n2c(=O)c(C)nc3cnc(N(C)C)nc32)cc1 | 12.6 µM [rising, partial curve]
11 | CCn1c(=O)c(C(=O)NCc2cccnc2)c(O)c2ccccc21 | 2.51 µM [rising, full curve]
12 | O=C(NCc1ccco1)c1ccccc1Br | 20 µM [falling, single point]
13 | CCOC(=O)c1ccc2c(c1)nc(C1CCN(S(=O)(=O)c3cccs3)CC1)n2CC | 0.00316 µM [falling, full curve, poor fit]
14 | COc1ccc(CNC(=O)c2cc3c(=O)n4ccccc4nc3n(Cc3cccnc3)c2=N)cc1 | 7.94 µM [rising, partial curve, poor fit]
15 | CC1(C)C(c2cccs2)=[N+]([O-])C2(CCCCC/C2=N\O)N1O (configuration not stated) | 0.126 µM [falling, full curve, poor fit]
16 | O=c1c2ccccc2nc(SCc2cn3ccsc3n2)n1-c1ccccc1 | 1.26 µM [rising, full curve]
17 | CCCn1c(NC(=O)C2CCN(S(=O)(=O)c3cccs3)CC2)nc2ccccc21 | 7.94 µM [falling, partial curve]
18 | CCOC(=O)N1CCC(c2nc3ccccc3[nH]2)CC1 | 6.31 µM [falling, partial curve, poor fit]
19 | Cc1c(C(=O)Nc2ccc(N3CCOCC3)cc2)oc2ccccc12 | 25.1 µM [rising, single point]
20 | N#CC1=C(N)OC(c2ccccc2)=C(C#N)C1c1ccc2c(c1)OCO2 (configuration not stated) | 0.00316 µM [falling, full curve]
21 | Nc1ccc2cc3ccccc3cc2c1 | 25.1 µM [rising, partial curve]

Row | Structure (SMILES) | AC50
22 | COc1ccc(C(=O)N2CCC3(CCN(Cc4ccc(C#N)cc4)CC3)CC2)cc1 | 20 µM [rising, single point]
23 | O=C(CSc1nnc(-c2ccc(NS(=O)(=O)c3ccccc3)cc2)o1)NCC1CCCO1 (configuration not stated) | 5.01 µM [falling, partial curve]
24 | CC(=O)Nc1cccc(NC(=O)c2c(-c3c(Cl)cccc3Cl)noc2C)c1 | 1.26 µM [falling, partial curve, poor fit]
25 | Cc1ccccc1Nc1nc(N)nc(CSc2nnnn2-c2ccccc2)n1 | 10 µM [rising, partial curve]
26 | COC(=O)[C@@]1(Cc2ccc(OC)cc2)[C@H]2c3cc(C(=O)N(C)C)n(Cc4ccc(C)c(F)c4F)c3C[C@H]2CN1C(=O)c1ccccc1 | 25.1 µM [rising, partial curve]
27 | CCOC(=O)CNC(=O)C(Cc1ccccc1)NS(=O)(=O)c1cccs1 (configuration not stated) | 0.398 µM [falling, partial curve]
28 | COc1ccc(C2C(C(=O)N3CCN(c4ccc(OC)cc4)CC3)c3ccccc3C(=O)N2C)cc1 (configuration not stated) | 0.00398 µM [falling, full curve, poor fit]
29 | Cc1ccccc1NC(=O)N1CCCC(c2nc(-c3ccc(C(C)C)cc3)no2)C1 (configuration not stated) | 12.6 µM [falling, partial curve, poor fit]
30 | COc1cc2c(cc1NC(=O)CN(C)Cc1nc3ccccc3c(=O)[nH]1)oc1ccccc12 | 2.51 µM [rising, partial curve]
31 | O=C(Cc1cn2ccsc2n1)OCc1nc2ccccc2s1 | 0.158 µM [falling, full curve]
32 | Cc1n[nH]c(=O)nc1NCC1CCCO1 (configuration not stated) | 1 µM [falling, single point]
33 | O=C(CCn1c(=O)oc2ccccc21)Nc1ccon1 | 2 µM [rising, single point]
34 | Cc1cc(N2CCCC2)n2nc(C)nc2n1 | 12.6 µM [rising, single point]
35 | CCC(=O)c1cc2c(cc1NC(=O)C(C)C)OCCO2 | 10 µM [rising, single point]
36 | COc1cc2cc(C(c3nnnn3C3CCCC3)N(C)C3CCCCC3)c(=O)[nH]c2cc1OC (configuration not stated) | 10 µM [rising, partial curve]
37 | Cn1c(=O)[nH]c(=O)c2c1nc(N1CCCCC1)n2CCOc1ccccc1 | 3.98 µM [rising, full curve, poor fit]
38 | CC(=O)n1nc(-c2ccccc2)nc1NCc1ccc(F)cc1 | 0.00316 µM [falling, full curve, poor fit]
39 | CCC(=O)c1cc2c(C)cc(=O)oc2c(C)c1O | 2.51 µM [rising, full curve]
40 | CCOC(=O)c1cnc(SCC(=O)Nc2ccc(NC(=O)CC)c(OC)c2)nc1N | 20 µM [rising, single point]
41 | CCCCOC(=O)CCn1c(=S)oc2ccccc21 | 10 µM [rising, single point]
42 | CCc1cccc(C)c1NC(=O)CSc1nc2ccccc2n1CC(=O)N(C)C | 10 µM [rising, single point]

3 entries from above, ordered by number of heavy atoms, ascending.
Row | Structure (SMILES) | AC50
41 | CCCCOC(=O)CCn1c(=S)oc2ccccc21 | 10 µM [rising, single point]
31 | O=C(Cc1cn2ccsc2n1)OCc1nc2ccccc2s1 | 0.158 µM [falling, full curve]
37 | Cn1c(=O)[nH]c(=O)c2c1nc(N1CCCCC1)n2CCOc1ccccc1 | 3.98 µM [rising, full curve, poor fit]
